From patent US12653217B2, “Composition for enhancing umami comprising tyrosine-amino acid peptide and use thereof” (INDUSTRY-ACADEMIC COOPERATION FOUNDATION GYEONGSANG …, priority 2021, dated 2026) come the findings set out here.

Data set [1] in a line: Electronic tongue, purified water samples: comparison of umami intensity with amino acids. The conditions noted are these: same concentration, FIG. 1. The method, then: The taste component pattern of the yogurt samples was analyzed by using an electronic sensor. Specifically, the analysis was conducted by using an electronic tongue system (ASTREE, Alpha MOS, Toulouse, France) equipped with sensors for five basic taste components perceived by humans: sourness (SRS), saltiness (STS), umami (UMS), sweetness (SWS), and bitterness (BRS). Additional sensors, GPS and SPS, were used as reference values for calibration. For analysis of the water-soluble taste components, 10 mL of the test sample were dissolved in 90 mL of purified water in a vial specifically designed for electronic tongue analysis. The sample solution was then loaded into the sampler of the electronic tongue system. The sensors were immersed in the sample solution for 2 minutes to measure, through contact with the sample, the intensity of taste components associated with each sensor. To minimize errors from cross-contamination between samples, the sensors were washed with purified water between each analysis. Individual results were obtained as taste pattern for each taste component, and the taste component pattern among the samples was examined through principal component analysis (PCA).
Each sample (10 mg) was dissolved in 100 mL of purified water and injected into the vial for electronic tongue analysis. […] Each sample was repeatedly analyzed five times.

Data set [2] is described as follows: Electronic tongue: change in umami with respect to pH (citric acid buffer). To be noted: pH 4.0, 7.0, 10.0. Here is the method:
Each sample (10 mg) was dissolved in 100 mL of purified water and injected into the vial for electronic tongue analysis. To remove solid particles and fine particles that could interfere with the analysis, the samples were pre-treated by filtration to give liquid samples. The sample solution was loaded into the sampler of the electronic tongue system. The sensors were immersed in the sample solution for 2 minutes to measure, through contact with the sample, the intensity of taste components associated with each sensor. To minimize errors from cross-contamination between samples, the sensors were thoroughly washed with purified water between each analysis, and then used for the next sample analysis. Each sample was repeatedly analyzed five times.
Furthermore, to investigate a change in umami of tyrosine peptide in response to pH variations, experiments were conducted at acidic, neutral, and alkaline pH ranges. The pH values used were 4.0, 7.0, and 10.0. Buffer solutions containing citric acid were utilized for the experiments.
Therefore, it can be concluded that the umami components present in the two samples have stability against pH variations.

Regarding H-Tyr-Gln-OH [YQ], in data set [1], the “umami intensity relative to the individual amino acids Gln, Tyr and Trp” value is “almost twice as strong”. Also, in data set [2], the “change in umami intensity with respect to pH variations” value is listed as “no significant change”.

For H-Tyr-Trp-OH [YW], in data set [1], the “umami intensity relative to the individual amino acids Gln, Tyr and Trp” value is reported as “almost twice as strong”. In data set [2], the “change in umami intensity with respect to pH variations” value is on record as “no significant change”.
